Results are given in words; binding and its absence hold for the method and conditions named. Binding seen in cells or lysates may run through a third protein. Some entries that bind do so weakly or less than the wild type.
Target: FLAG-tagged human PDE6D (human) (UniProt O43924)
Assay: co-IP; anti-FLAG M2 affinity gel on lysates of P12-ICHIKAWA cells stably expressing FLAG-PDE6D, overnight at 4 °C, five washes with lysis buffer; cells treated with 100 µM DW0254 or DMSO; Western blot of the eluate

Sequences of proteins named here, by UniProt entry; tags and fusion partners are left off.
UniProt P36404: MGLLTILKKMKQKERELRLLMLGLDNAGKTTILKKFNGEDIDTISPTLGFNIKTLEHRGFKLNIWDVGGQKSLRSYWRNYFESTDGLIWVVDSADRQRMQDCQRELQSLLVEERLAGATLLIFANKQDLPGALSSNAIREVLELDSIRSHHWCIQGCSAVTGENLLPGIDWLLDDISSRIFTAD

binding: binds
Substance: ADP-ribosylation factor-like protein 2 (ARL2) (from UniProt P36404 1-184)

Reference: PMC9010429
